Values quoted from earlier work, collected in patent publication US9642806B2, “Antifungal compositions with improved bioavailability” (Janssen Pharmaceutica N.V., priority 1996, dated 2017).
At least one structure is not confirmed: it was looked up by name or label, or the drawing left a doubt.

System: Aspergillus spp.
Settings: cited from earlier work

Compound: CCC(C)n1ncn(-c2ccc(N3CCN(c4ccc(OC[C@H]5CO[C@](Cn6cncn6)(c6ccc(F)cc6F)O5)cc4)CC3)cc2)c1=O (mixture of isomers) [saperconazole, (±)-cis-4-[4-[4-[4-[[2-(2,4-difluorophenyl)-2-(1H-1,2,4-triazol-1-ylmethyl)-1,3-dioxolan-4-yl]methoxy]phenyl]-1-piperazinyl]phenyl]-2,4-dihydro-2-(1-methoxypropyl)-3H-1,2,4-triazol-3-one]
- activity against Aspergillus spp. compared with itraconazole: improved activity
